Assay results as given in article doi:10.1101/2025.04.16.649119.
Results are given in words; binding and its absence hold for the method and conditions named. Some results given as binding are weak or reduced against the parent protein; the word gives no strength.

The chains behind the UniProt entries cited, without tags or fusion partners.
UniProt P35637: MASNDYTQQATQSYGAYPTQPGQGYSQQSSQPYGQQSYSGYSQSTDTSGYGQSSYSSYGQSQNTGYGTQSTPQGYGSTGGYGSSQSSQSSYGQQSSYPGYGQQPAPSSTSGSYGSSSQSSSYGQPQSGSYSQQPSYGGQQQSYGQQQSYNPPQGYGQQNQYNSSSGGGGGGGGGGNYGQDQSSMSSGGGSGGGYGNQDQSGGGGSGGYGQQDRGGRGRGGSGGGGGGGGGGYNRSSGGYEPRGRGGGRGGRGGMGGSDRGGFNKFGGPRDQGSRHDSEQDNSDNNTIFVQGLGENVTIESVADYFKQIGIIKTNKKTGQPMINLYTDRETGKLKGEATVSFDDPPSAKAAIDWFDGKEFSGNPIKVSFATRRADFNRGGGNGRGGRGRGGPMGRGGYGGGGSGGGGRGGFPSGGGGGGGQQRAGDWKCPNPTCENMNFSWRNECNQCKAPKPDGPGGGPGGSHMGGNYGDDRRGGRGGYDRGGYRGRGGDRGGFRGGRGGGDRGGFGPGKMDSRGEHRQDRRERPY
UniProt Q01844: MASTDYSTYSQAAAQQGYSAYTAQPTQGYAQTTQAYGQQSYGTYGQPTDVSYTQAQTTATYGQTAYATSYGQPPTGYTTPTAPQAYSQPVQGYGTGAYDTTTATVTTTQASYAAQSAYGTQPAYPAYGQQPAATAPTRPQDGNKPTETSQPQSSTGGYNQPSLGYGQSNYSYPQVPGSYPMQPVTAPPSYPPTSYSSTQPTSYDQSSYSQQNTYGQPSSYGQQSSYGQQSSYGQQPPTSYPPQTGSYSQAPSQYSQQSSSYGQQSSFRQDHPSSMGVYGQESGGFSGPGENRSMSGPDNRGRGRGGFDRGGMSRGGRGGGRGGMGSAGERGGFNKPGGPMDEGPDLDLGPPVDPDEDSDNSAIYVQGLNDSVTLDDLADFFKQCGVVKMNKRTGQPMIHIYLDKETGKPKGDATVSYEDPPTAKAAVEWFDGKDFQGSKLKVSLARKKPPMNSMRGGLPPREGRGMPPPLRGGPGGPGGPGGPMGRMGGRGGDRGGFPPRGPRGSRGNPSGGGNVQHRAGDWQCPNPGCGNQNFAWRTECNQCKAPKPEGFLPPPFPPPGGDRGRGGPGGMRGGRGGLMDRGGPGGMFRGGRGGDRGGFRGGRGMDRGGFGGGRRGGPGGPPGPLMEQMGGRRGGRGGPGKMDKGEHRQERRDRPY

Key:
untagged FUS = untagged FUS (UniProt P35637); assay: dynamic light scattering
[1] = target: EWSR1-SNAP (Ewing Sarcoma RNA binding protein 1 with a C-terminal SNAP-tag) (UniProt Q01844); assay: dynamic light scattering
[2] = target: EWSR1-SNAP (Ewing Sarcoma RNA binding protein 1 with a C-terminal SNAP-tag) (UniProt Q01844); assay: nanoparticle tracking analysis

Substance	binding (untagged FUS)	binding [1]	binding [2]
untagged FUS (from UniProt P35637 1-526)	no binding (condition: with 60 mM NaTS)		
EWSR1-SNAP (Ewing Sarcoma RNA binding protein 1 with a C-terminal SNAP-tag) (from UniProt Q01844 1-656)		binds	binds
